Data taken from US9044016B2, “N-thio-anthranilamide compounds and their use as pesticides” (BASF SE, priority 2011, dated 2015).
Some of these results come from one statement about several compounds together.

Experiments:
Type in all cases: in vivo
[1] = system: Tobacco Budworm (Heliothis virescens); assay: B.8 Tobacco budworm I, insect diet with eggs in 96-well plates; conditions: 2500 ppm; egg and larval mortality; 5 days
Method: For evaluating control of tobacco budworm (Heliothis virescens) the test unit consisted of 96-well-microtiter plates containing an insect diet and 15-25 H. virescens eggs.
The compounds were formulated using a solution containing 75% v/v water and 25% v/v DMSO. Different concentrations of formulated compounds were sprayed onto the insect diet at 10 μl, using a custom built micro atomizer, at two replications.
(§1) After application, microtiter plates were incubated at about 28+1° C. and about 80+5% relative humidity for 5 days. Egg and larval mortality was then visually assessed.

[2] = system: Mediterranean Fruitfly (Ceratitis capitata); assay: B.4 Mediterranean fruitfly, insect diet with eggs in microtiter plates; conditions: 2500 ppm; egg and larval mortality; 5 days
Method: For evaluating control of Mediterranean fruitfly (Ceratitis capitata) the test unit consisted of microtiter plates containing an insect diet and 50-80 C. capitata eggs.
(§2) The compounds were formulated using a solution containing 75% v/v water and 25% v/v DMSO. Different concentrations of formulated compounds were sprayed onto the insect diet at 5 μl, using a custom built micro atomizer, at two replications.
as §1

[3] = system: Boll Weevil (Anthonomus grandis); assay: B.9 Boll weevil, insect diet with eggs in 96-well plates; conditions: 2500 ppm; egg and larval mortality; 5 days
Method: For evaluating control of boll weevil (Anthonomus grandis) the test unit consisted of 96-well-microtiter plates containing an insect diet and 5-10 A. grandis eggs.
as §2
After application, microtiter plates were incubated at about 25+1° C. and about 75+5% relative humidity for 5 days. Egg and larval mortality was then visually assessed.

[4] = system: Green Peach Aphid (Myzus persicae); assay: B.3 Green peach aphid, systemic, artificial diet in 96-well plates; conditions: 2500 ppm, adult aphids, 3 days
From the text: For evaluating control of green peach aphid (Myzus persicae) through systemic means the test unit consisted of 96-well-microtiter plates containing liquid artificial diet under an artificial membrane.
The compounds were formulated using a solution containing 75% v/v water and 25% v/v DMSO. Different concentrations of formulated compounds were pipetted into the aphid diet, using a custom built pipetter, at two replications.
After application, 5 to 8 adult aphids were placed on the artificial membrane inside the microtiter plate wells. The aphids were then allowed to suck on the treated aphid diet and incubated at about 23+1° C. and about 50+5% relative humidity for 3 days. Aphid mortality and fecundity was then visually assessed.

[5] = system: Diamond Back Moth (Plutella xylostella); assay: B.2 Diamond back moth, cabbage leaf dip; conditions: 300 ppm; dipped cabbage leaves, 3rd instar larvae; 72 hours after treatment
Method: The active compound is dissolved at the desired concentration in a mixture of 1:1 (vol:vol) distilled water:aceteone. Surfactant (Alkamuls® EL 620) is added at a rate of 0.1% (vol/vol).The test solution is prepared at the day of use.
Leaves of cabbage were dipped in test solution and air-dried. Treated leaves were placed in petri dish eslined with moist filter paper and inoculated with ten 3rd instar larvae. Mortality was recorded 72 hours after treatment. Feeding damages were also recorded using a scale of 0-100%.

[6] = system: Vetch Aphid (Megoura Viciae); assay: B.7 Vetch aphid, broad bean leaf disks in 24-well plates; conditions: 2500 ppm; sprayed leaf disks, adult aphids; 5 days
Method: For evaluating control of vetch aphid (Megoura viciae) through contact or systemic means the test unit consisted of 24-well-microtiter plates containing broad bean leaf disks.
The compounds were formulated using a solution containing 75% v/v water and 25% v/v DMSO. Different concentrations of formulated compounds were sprayed onto the leaf disks at 2.5 μl, using a custom built micro atomizer, at two replications.
After application, the leaf disks were air-dried and 5 to 8 adult aphids placed on the leaf disks inside the microtiter plate wells. The aphids were then allowed to suck on the treated leaf disks and incubated at about 23+1° C. and about 50+5% relative humidity for 5 days. Aphid mortality and fecundity was then visually assessed.

[7] = system: Orchid Thrips (Dichromothrips Corbetti); assay: B.5 Orchid thrips, floral-immersion technique; conditions: 300 ppm; dipped orchid flowers, adult thrips; 72 hours after treatment
Method: Dichromothrips corbetti adults used for bioassay were obtained from a colony maintained continuously under laboratory conditions. For testing purposes, the test compound is diluted in a 1:1 mixture of acetone:water (vol:vol), plus 0.01% vol/vol Alkamuls® EL 620 surfactant.
Thrips potency of each compound was evaluated by using a floral-immersion technique. Plastic petri dishes were used as test arenas. All petals of individual, intact orchid flowers were dipped into treatment solution and allowed to dry. Treated flowers were placed into individual petri dishes along with about 20 adult thrips. The petri dishes were then covered with lids. All test arenas were held under continuous light and a temperature of about 28° C. for duration of the assay. After 3 days, the numbers of live thrips were counted on each flower, and along inner walls of each petri dish. The percentmortality was recorded 72 hours after treatment.

## O=C(N=S1CCCC1)c1cc(Cl)cc(Br)c1NC(=O)c1cc(C(F)(F)F)nn1-c1ncccc1Cl [S.2, 2-(3-chloro-2-pyridyl)-N-[2-bromo-4-chloro-6-[(tetrahydro-λ^4-thiophenidene)carbamoyl]phenyl]-5-(trifluoromethyl)pyrazole-3-carboxamide]
[1]
  mortality in comparison with untreated controls: over 75%
[2]
  mortality in comparison with untreated controls: over 75%
[3]
  mortality in comparison with untreated controls: over 95%
[4]
  mortality in comparison with untreated controls: over 75%
[5]
  mortality in comparison with untreated controls: over 75%
[6]
  mortality in comparison with untreated controls: over 75%
[7]
  mortality in comparison with untreated controls: over 75%

## O=C(N=S1CCCC1)c1cc(Cl)cc(Cl)c1NC(=O)c1cc(C(F)(F)F)nn1-c1ncccc1Cl [S.3, 2-(3-chloro-2-pyridyl)-N-[2,4-dichloro-6-[(tetrahydro-λ^4-thiophenidene)carbamoyl]phenyl]-5-(trifluoromethyl)pyrazole-3-carboxamide]
[1]
  mortality in comparison with untreated controls: over 75%
[2]
  mortality in comparison with untreated controls: over 75%
[3]
  mortality in comparison with untreated controls: over 95%
[4]
  mortality in comparison with untreated controls: over 75%
[5]
  mortality in comparison with untreated controls: over 75%
[6]
  mortality in comparison with untreated controls: over 75%
[7]
  mortality in comparison with untreated controls: over 75%

## CC(C)C(C)S(=NC(=O)c1cc(Cl)cc(Cl)c1NC(=O)c1cc(C(F)(F)F)nn1-c1ncccc1Cl)C(C)C(C)C (stereo not drawn) [S.32]
[5]
  mortality in comparison with untreated controls: over 75%
[7]
  mortality in comparison with untreated controls: over 75%

## CCS(=NC(=O)c1cc(Cl)cc(Cl)c1NC(=O)c1cc(C(F)(F)F)nn1-c1ncccc1Cl)C(C)C(C)C (stereo not drawn) [S.33]
[5]
  mortality in comparison with untreated controls: over 75%
[7]
  mortality in comparison with untreated controls: over 75%
